For 24 compounds, T/C and survivor count results are on record in PubChem BioAssay AID330 (DTP/NCI, 2004).

The list does not hold the whole screen: it gathers tests that were run many times, whatever their T/C, doses with no T/C, and many T/C values between a quarter and a half above the control. Other doses and runs of a compound stand elsewhere. T/C: endpoint of the treated group in % of that of the vehicle group. Some doses have a count of surviving animals in place of a T/C: the source holds a T/C of zero for them, seemingly a mark for toxic or unscored doses. Some doses without a T/C left all or most animals alive at the check, yet need not have been tolerated: the source hardly ever lists a survival T/C far under the control, and the zero likely stands for such cases as well. Survivors were counted at the toxicity check, usually on the fifth day, unless a day is given; later deaths do not show. Schedule codes are those of the source, read here as Q, the interval in days (D) or hours (H), X, the number of doses. Some entries were tested several times; their values stand side by side, smallest first. For survival time, this PubChem deposit counts one and a half times the control or more as active, and values a quarter to a half above the control carry no call in these data; other NCI protocols may use other cut-offs. Some T/C values are followed by the survivors on the day toxicity was checked, most often the fifth; without a count, all were alive then.

This assay concerns P388 leukemia ip, CD2F1 mice, survival T/C. Briefly: NCI In Vivo Anticancer Drug Screen. Data for tumor model P388 Leukemia (intraperitoneal) in CD2F1 (CDF1) mice. To be noted: T/C endpoint: median survival time, higher T/C = longer survival.
The mark [1] stands for this setting: dose: 200.0 mg/kg/injection, schedule: Q01DX009 (ip), vehicle: saline with Tween-80.
Where [2] appears, read: dose: 50.0 mg/kg/injection, schedule: Q01DX009 (ip), vehicle: Klucel (hydroxypropylcellulose) (HPC).
Setting [3] is: dose: 100.0 mg/kg/injection, schedule: Q01DX009 (ip), vehicle: saline.
[4] abbreviates: dose: 200.0 mg/kg/injection, schedule: Q01DX009 (ip), vehicle: saline.
Where [5] appears, read: dose: 100.0 mg/kg/injection, schedule: Q01DX009 (ip), vehicle: saline with Tween-80.
[6] abbreviates: dose: 200.0 mg/kg/injection, schedule: Q01DX009 (ip), vehicle: saline + alcohol.
Where [7] appears, read: dose: 200.0 mg/kg/injection, schedule: Q01DX009 (ip), vehicle: saline + Tween-80 + alcohol.

On to `CC(=O)O[C@H]1C(=O)[C@]2(C)[C@@H](OC(C)=O)CC3OC[C@@]3(OC(C)=O)[C@H]2[C@H](OC(=O)c2ccccc2)[C@]2(O)C[C@H](OC(=O)[C@H](O)[C@@H](NC(=O)c3ccccc3)c3ccccc3)C(C)=C1C2(C)C` (stereo not given in full), for which the T/C reads like this: (dose: 10.0 mg/kg/injection, schedule: Q01DX005 (ip), vehicle: DMSO) 125 % of control; (dose: 20.0 mg/kg/injection, schedule: Q01DX005 (ip), vehicle: DMSO) 139 % of control.

Take `O=NN(c1ccccc1)c1ccc([N+](=O)[O-])cc1`: under setting [1], the survivor count is given as 6 of 6.

Take `COC1/C=C/OC2(C)Oc3c(C)c(O)c4c(c3C2=O)C(=O)C([N+](=O)[O-])=C(NC(=O)C(C)=C/C=C\C(C)C(O)C(C)C(O)C(C)C(OC(C)=O)C1C)C4=O` (stereo not given): the survivor count reads like this: (dose: 25.0 mg/kg/injection, schedule: Q01DX009 (ip), vehicle: Klucel (hydroxypropylcellulose) (HPC)) 6 of 6; under setting [2], 6 of 6.

In the case of `COc1ccc(-c2nc(C)cc3cc(OC)c(OC)cc23)cc1OC`, the survivor count (dose: 200.0 mg/kg/injection, schedule: Q01DX009 (ip), vehicle: water) is 1 of 6.

Consider `O=C(O)c1c2c(nc3ccccc13)CCCC2`, for which the survivor count (dose: 200.0 mg/kg/injection, schedule: Q01DX005 (ip), vehicle: Klucel + Tween-80) was 4 of 6.

In the case of `O=C[C@@H](CO)O[C@H](C=O)n1cnc2c(=O)[nH]cnc21`, the T/C is 125 and 128 % of control (dose: 20.0 mg/kg/injection, schedule: Q01DX009 (ip), vehicle: saline); 137, 145, 149 % of control (dose: 40.0 mg/kg/injection, schedule: Q01DX009 (ip), vehicle: saline); 127 % of control (dose: 54.0 mg/kg/injection, schedule: Q01DX005 (ip), vehicle: saline); 149 % of control (dose: 80.0 mg/kg/injection, schedule: Q01DX009 (ip), vehicle: saline); 145 % of control [6 of 7 alive] (dose: 90.0 mg/kg/injection, schedule: Q01DX005 (ip), vehicle: saline). Further, under “dose: 320.0 mg/kg/injection, schedule: Q01DX009 (ip), vehicle: saline”, the survivor count is reported as 5 of 6.

On to `CN1ON(c2ccc(Cl)c(Cl)c2)OC1=O`, for which the survivor count is 6 of 6 under setting [3] and 6 of 6 under setting [4].

Take `COc1cc(CO)c(CO)cc1OC`: the survivor count reads like this: (dose: 6.25 mg/kg/injection, schedule: Q01DX005 (ip), vehicle: saline) 1 of 5; (dose: 12.5 mg/kg/injection, schedule: Q01DX005 (ip), vehicle: saline) 0 of 5; (dose: 50.0 mg/kg/injection, schedule: Q01DX009 (ip), vehicle: saline with Tween-80) 0 of 6; under setting [5], 0 of 6; under setting [1], 0 of 6.

In the case of `O=C(NC(C(=O)O)c1ccc(CCl)cc1)c1ccccc1` (stereo not given), the survivor count (dose: 200.0 mg/kg/injection, schedule: Q01DX005 (ip), vehicle: saline with Tween-80) is listed as 2 of 6.

For the compound `Cc1cc(Cl)ccc1S(=O)(=O)Cl`, the survivor count under setting [1] is 3 of 6.

With `CC(C)CCC(=O)c1ccoc1`, the survivor count is 1 of 6 and 3 of 6 (dose: 7.5 mg/kg/injection, schedule: Q01DX005 (ip), vehicle: saline with Tween-80); 0 of 6 (dose: 15.0 mg/kg/injection, schedule: Q01DX005 (ip), vehicle: saline with Tween-80); 0 of 6 (dose: 30.0 mg/kg/injection, schedule: Q01DX005 (ip), vehicle: saline with Tween-80); 0 of 6 (dose: 60.0 mg/kg/injection, schedule: Q01DX005 (ip), vehicle: saline with Tween-80); 0 of 6 (dose: 120.0 mg/kg/injection, schedule: Q01DX005 (ip), vehicle: saline with Tween-80); 0 of 6 (dose: 240.0 mg/kg/injection, schedule: Q01DX005 (ip), vehicle: saline with Tween-80).

With `CN(C)c1ccc2c(SCC(=O)OCC(=O)C3(O)CCC4C5CCC6=CC(=O)C=CC6(C)C5C(O)CC43C)c3ccc(N(C)C)cc3nc2c1` (stereo not given), under “dose: 50.0 mg/kg/injection, schedule: Q01DX005 (ip), vehicle: Klucel (hydroxypropylcellulose) (HPC)”, the T/C is 125 % of control [5 of 6 alive]. Also, the survivor count reads like this: (dose: 100.0 mg/kg/injection, schedule: Q01DX005 (ip), vehicle: Klucel (hydroxypropylcellulose) (HPC)) 1 of 5; (dose: 200.0 mg/kg/injection, schedule: Q01DX005 (ip), vehicle: Klucel (hydroxypropylcellulose) (HPC)) 1 of 6.

Turning to `O=C1NC(=S)NNC12CCCCC2`, the survivor count under setting [2] is reported as 6 of 6. In addition, the T/C (dose: 100.0 mg/kg/injection, schedule: Q01DX009 (ip), vehicle: Klucel (hydroxypropylcellulose) (HPC)) is 125 % of control.

As to `CC(C)NCC(O)COc1cccc2[nH]c3ccccc3c12` (stereo not given), under setting [5], the survivor count was 0 of 6.

In the case of `NNc1ccc2cccc([N+](=O)[O-])c2n1`, the survivor count by setting is: (dose: 200.0 mg/kg/injection, schedule: Q01DX009 (ip), vehicle: other) 3 of 6; (dose: 400.0 mg/kg/injection, schedule: Q01DX009 (ip), vehicle: other) 2 of 6.

As to `COc1c2c(nc3ccccc13)-c1cc3c(c(=O)n1C2)COC(=O)C3(O)CC(=O)N1CCOCC1` (stereo not given), the T/C is 149 % of control (dose: 25.0 mg/kg/injection, schedule: Q01DX009 (ip), vehicle: saline) and 137 % of control (dose: 50.0 mg/kg/injection, schedule: Q01DX009 (ip), vehicle: suspension in saline).

In the case of `CCCC[As](CCCC)SC1CC(OC(=O)c2ccccc2)C(OC(=O)c2ccccc2)C(COC(=O)c2ccccc2)O1` (stereo not given), the survivor count by setting is: (dose: 100.0 mg/kg/injection, schedule: Q01DX009 (ip), vehicle: saline + alcohol) 2 of 6; under setting [6], 0 of 6.

Take `CC(=O)Oc1ccccc1O`: the T/C (dose: 100.0 mg/kg/injection, schedule: Q01DX009 (ip), vehicle: saline + Tween-80 + alcohol) is 129 % of control; the T/C under setting [7] was 125 and 135 % of control [5 of 6 alive]. Also, the survivor count is reported as 1 of 6 under setting [7] and 0 of 6 (dose: 400.0 mg/kg/injection, schedule: Q01DX009 (ip), vehicle: saline + Tween-80 + alcohol).

With `CC(C(=O)O)S(=O)(=O)O` (stereo not given), for the setting “dose: 80.0 mg/kg/injection, schedule: Q01DX009 (ip), vehicle: saline with Tween-80”, the survivor count is reported as 0 of 6.

With `CCC(C)n1c(C)nc2cc(C(F)(F)F)cc(N)c21` (stereo not given), under setting [6], the survivor count is listed as 3 of 6.

In the case of `CC(=O)c1nc(-c2ccccc2)[nH]c1C`, for the setting “dose: 400.0 mg/kg/injection, schedule: Q04DX003 (ip), vehicle: saline with Tween-80”, the survivor count is recorded as 2 of 6.

`CC1CC(C)(O)CC(C(O)CC2CC(=O)NC(=O)C2)C1=O` (stereo not given): the T/C is 140 % of control (dose: 77.8 micrograms/kg/injection, schedule: Q01DX009 (ip), vehicle: saline); 138 and 141 % of control (dose: 130.0 micrograms/kg/injection, schedule: Q01DX009 (ip), vehicle: saline); 131 % of control (dose: 467.0 micrograms/kg/injection, schedule: Q04DX003 (ip), vehicle: saline); 135 % of control (dose: 778.0 micrograms/kg/injection, schedule: Q04DX003 (ip), vehicle: saline); 134 % of control (dose: 1300.0 micrograms/kg/injection, schedule: Q04DX003 (ip), vehicle: saline); 149 % of control (dose: 2160.0 micrograms/kg/injection, schedule: Q04DX003 (ip), vehicle: saline). Moreover, the T/C (dose: 3600.0 micrograms/kg/injection, schedule: Q04DX003 (ip), vehicle: saline) is 144 % of control [7 of 8 alive]. Further, the survivor count was 8 of 8 (dose: 360.0 micrograms/kg/injection, schedule: Q01DX009 (ip), vehicle: saline); 7 of 8 and 8 of 8 (dose: 600.0 micrograms/kg/injection, schedule: Q01DX009 (ip), vehicle: saline).

In the case of `NC(=S)N/N=C/c1cn(-c2ccc(N)cc2)cn1`, the survivor count (dose: 200.0 mg/kg/injection, schedule: Q04DX003 (ip), vehicle: Klucel (hydroxypropylcellulose) (HPC)) is 0 of 6 and the survivor count (dose: 400.0 mg/kg/injection, schedule: Q04DX003 (ip), vehicle: Klucel (hydroxypropylcellulose) (HPC)) is on record as 0 of 6.

Regarding `CC(C)(CCl)C(=O)O`, the survivor count under setting [3] is 2 of 6 and the survivor count under setting [4] is listed as 3 of 6.
